From the supplement of paper PMC9233669
Variants at the floor of the assay are shown more often than the library holds them.

How the values were obtained:
[1] = system: biotinyl-Met-oxazolone; test: self-aminoacylation, catalytic enhancement (BMO) (fold over background); higher = more active; k-Seq, kA / k0A0; sequences stand for … in GGGAAUGGAUCCACAUCUACGAAUUC…UUCACUGCAGACUUGACGAAGCUG
Outline: (§1)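 Working in 50 μL HEPES/NaCl/KCl/MgCl2/CaCl2 buffer with 5% acetonitrile at pH 6.9–7.0, mutagenized RNA pools (0.43 μM; 21-nt variable region) were reacted with 2–1250 μM of each biotinyl-aminoacyl-oxazolone for 90 minutes at room temperature. Streptavidin capture followed, with quantification by triplicate qPCR and Illumina sequencing. Catalytic enhancement is reported as median kA over the uncatalyzed rate, the low-activity peak of a bimodal Gaussian fit to the data.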

[2] = system: biotinyl-Phe-oxazolone; test: self-aminoacylation, catalytic enhancement (BFO) (fold over background); higher = more active; k-Seq, kA / k0A0; sequences stand for … in GGGAAUGGAUCCACAUCUACGAAUUC…UUCACUGCAGACUUGACGAAGCUG
Outline: as §1

[3] = system: biotinyl-Trp-oxazolone; test: self-aminoacylation, catalytic enhancement (BWO) (fold over background); higher = more active; k-Seq, kA / k0A0; sequences stand for … in GGGAAUGGAUCCACAUCUACGAAUUC…UUCACUGCAGACUUGACGAAGCUG
Outline: as §1

[4] = system: biotinyl-Val-oxazolone; test: self-aminoacylation, catalytic enhancement (BVO) (fold over background); higher = more active; k-Seq, kA / k0A0; sequences stand for … in GGGAAUGGAUCCACAUCUACGAAUUC…UUCACUGCAGACUUGACGAAGCUG
Outline: as §1

[5] = system: biotinyl-Ile-oxazolone; test: self-aminoacylation, catalytic enhancement (BIO) (fold over background); higher = more active; k-Seq, kA / k0A0; sequences stand for … in GGGAAUGGAUCCACAUCUACGAAUUC…UUCACUGCAGACUUGACGAAGCUG
Outline: as §1

[6] = system: biotinyl-Leu-oxazolone; test: self-aminoacylation, catalytic enhancement (BLO) (fold over background); higher = more active; k-Seq, kA / k0A0; sequences stand for … in GGGAAUGGAUCCACAUCUACGAAUUC…UUCACUGCAGACUUGACGAAGCUG
Outline: as §1

Sequence	self-aminoacylation [1]	self-aminoacylation [2]	self-aminoacylation [3]	self-aminoacylation [4]	self-aminoacylation [5]	self-aminoacylation [6]
AAAUUCGCUAAUAGUCGCAAG [Fam3.1 aminoacylation ribozyme variant]	2.31	2.65	2.09	1.82	2.89	2.19
AAAUUUGCUAAUAUUCGCAAG [Fam3.1 aminoacylation ribozyme variant]	1.57	1.34	–	1.77	1.96	1.4
AAAUUUGCUAGUAGUCGCAAG [Fam3.1 aminoacylation ribozyme variant]	1.79	1.5	1.59	1.36	1.83	1.46
AACCUUGCUAAUAGUCGCAAG [Fam3.1 aminoacylation ribozyme variant]	1.58	1.51	1.91	1.62	1.56	1.55
AAGAUUGCUAAUAGGCGCAAG [Fam3.1 aminoacylation ribozyme variant]	1.27	1.34	–	1.36	1.75	1.47
AAGCUUGCUAAUAUUCGCAAG [Fam3.1 aminoacylation ribozyme variant]	1.64	1.43	–	–	–	1.97
AAGUGUGCUAAUCGUCGCAAG [Fam3.1 aminoacylation ribozyme variant]	1.26	1.88	–	1.62	1.49	1.23
AAGUUGGCUAAUAGUCUCAAG [Fam3.1 aminoacylation ribozyme variant]	1.36	1.62	–	1.23	1.36	1.21
AAGUUUGCUAUUAGUCGCAGG [Fam3.1 aminoacylation ribozyme variant]	1.22	1.83	–	1.37	1.39	1.39
AAUCACCUAGGUCAUAGGGUG [Fam2.2 aminoacylation ribozyme variant]	1.29	1.28	–	1.72	1.88	1.7
AAUCACCUAGGUCAUCAGGUG [Fam2.2 aminoacylation ribozyme variant]	1.53	1.43	–	1.75	1.58	1.39
AUUACGCUGGUCAUCGAGCGA [Fam2.1 aminoacylation ribozyme variant]	1.37	0.719	–	1.69	1.46	1.3
AUUAUCCUGGUCAUCGAGGGA [Fam2.1 aminoacylation ribozyme variant]	1.67	1.3	1.38	1.46	1.62	–
AUUCUCCUAGGUCAUCGGGGG [Fam2.2 aminoacylation ribozyme variant]	–	1.58	–	–	–	–
CAAAACUUCAAGCAAUCGGUC [Fam1B.1 aminoacylation ribozyme variant]	1.12	–	10.6	1.17	1.16	1.37
CAACUGCAAACAAUCGGUCUG [Fam1A.1 aminoacylation ribozyme variant]	1.09	–	1.26	1.23	1.21	1.01
CAACUUCAAACAAUCGAUCUG [Fam1A.1 aminoacylation ribozyme variant]	0.567	–	1.24	0.759	0.806	0.64
CCACAAUUCAAGCAAUCGCUC [Fam1B.1 aminoacylation ribozyme variant]	–	1.38	1.52	–	–	–
CCACACAUCAAGCAAUCGGGC [Fam1B.1 aminoacylation ribozyme variant]	1.73	0.919	–	1.72	–	1.47
CCACACCUCAAGCAAUCGGCC [Fam1B.1 aminoacylation ribozyme variant]	1.86	0.88	–	–	1.76	1.65
CCACACUGCAAGCCAUCGGUC [Fam1B.1 aminoacylation ribozyme variant]	1.48	1.01	–	1.93	1.51	1.56
CCACACUUCAAGAAUUCGGUC [Fam1B.1 aminoacylation ribozyme variant]	1.84	–	1.78	1.77	1.93	1.88
CCACACUUCAAGCAACCGGUU [Fam1B.1 aminoacylation ribozyme variant]	1.72	1.42	1.59	–	1.96	1.29
CCACACUUCAAGCAAUCGAUC [Fam1B.1 aminoacylation ribozyme variant]	0.421	–	0.751	0.765	0.559	0.508
CCACACUUCAAGCCAUCGCUC [Fam1B.1 aminoacylation ribozyme variant]	1.86	1.61	–	1.67	1.81	–
CCACUUCAAACAACCGGUCUG [Fam1A.1 aminoacylation ribozyme variant]	1.13	–	1.78	1.13	1.31	1.24
CCACUUCAAAGAAUCGGUCUG [Fam1A.1 aminoacylation ribozyme variant]	1.04	–	8.92	1.13	1.15	1.32
CCAGACUUCAAGCAUUCGGUC [Fam1B.1 aminoacylation ribozyme variant]	–	1.72	1.86	–	–	–

Sequence	self-aminoacylation [1]	self-aminoacylation [2]	self-aminoacylation [3]	self-aminoacylation [4]	self-aminoacylation [5]	self-aminoacylation [6]
CCAGUCUUCAAGCAAUCGGUC [Fam1B.1 aminoacylation ribozyme variant]	1.79	–	38.6	1.63	1.67	2.8
CCAUACUUCCAGCAAUCGGUC [Fam1B.1 aminoacylation ribozyme variant]	1.06	–	0.815	1.39	1.45	1.1
CCCCACUUCAAGCAAUAGGUC [Fam1B.1 aminoacylation ribozyme variant]	0.722	–	1.17	0.936	0.812	0.673
CCCCACUUGAAGCAAUCGGUC [Fam1B.1 aminoacylation ribozyme variant]	1.48	1.36	–	–	1.58	1.5
CCGCACUUCAAGUAAUCGGUC [Fam1B.1 aminoacylation ribozyme variant]	1.4	–	14.5	1.37	1.3	1.54
CGAAACUUCAAGCAAUCGGUC [Fam1B.1 aminoacylation ribozyme variant]	0.901	–	5.43	1.18	1.17	0.993
CGACACUUCAGGCAAUCGGUC [Fam1B.1 aminoacylation ribozyme variant]	1.18	–	1.71	1.62	1.36	1.59
CGACUUCAAACAAUCGGUCUC [Fam1A.1 aminoacylation ribozyme variant]	1.59	–	31.1	1.35	1.52	1.99
CGACUUCAGACAAUCGGUCUG [Fam1A.1 aminoacylation ribozyme variant]	1.19	–	1.04	1.37	1.2	1.85
CUACAUCAAACAAGCGGUCUG [Fam1A.1 aminoacylation ribozyme variant]	1.01	–	1.27	0.953	1.28	1.12
CUACCUCAAACAUUCGGUCUG [Fam1A.1 aminoacylation ribozyme variant]	1.81	–	3.08	1.87	1.66	2.13
CUACGUCAAACAAUUGGUCUG [Fam1A.1 aminoacylation ribozyme variant]	1.11	–	0.921	1.05	1.06	0.931
CUACGUCGAACAAUCGGUCUG [Fam1A.1 aminoacylation ribozyme variant]	1.91	–	1.3	1.93	1.7	1.83
CUACUACAAACAAUAGGUCUG [Fam1A.1 aminoacylation ribozyme variant]	0.635	–	0.456	0.94	0.826	0.718
CUACUGCAAACAAGCGGUCUG [Fam1A.1 aminoacylation ribozyme variant]	1.22	–	1.52	1.35	1.59	0.929
CUACUUCAAACAAUCGUUCAG [Fam1A.1 aminoacylation ribozyme variant]	0.566	–	0.523	0.769	0.658	0.497
CUACUUCAACCAUUCGGUCUG [Fam1A.1 aminoacylation ribozyme variant]	1.17	–	1.52	1.26	1.21	1.19
CUACUUCAGACAUUCGGUCUG [Fam1A.1 aminoacylation ribozyme variant]	1.78	–	1.96	1.42	1.36	1.4
CUACUUGAAACAAGCGGUCUG [Fam1A.1 aminoacylation ribozyme variant]	1.5	–	1.05	1.27	1.27	1.2
CUACUUUCAACAAUCGGUCUG [Fam1A.1 aminoacylation ribozyme variant]	0.895	–	10.3	1.06	0.99	1.09
CUCCUUCAAACACUCGGUCUG [Fam1A.1 aminoacylation ribozyme variant]	1.08	–	1.33	1.39	1.41	1.46
CUUCACCUAGGUCAUCGGGCG [Fam2.2 aminoacylation ribozyme variant]	–	1.25	–	–	–	–
GAGUUUGCUAAGAGUCGCAAG [Fam3.1 aminoacylation ribozyme variant]	0.769	–	1.97	1.09	0.978	0.723
GAGUUUGCUAAUAGUCGCACG [Fam3.1 aminoacylation ribozyme variant]	1.66	–	1.25	1.63	1.53	1.04
UAGUUUGCUAAUAGUCGCAUG [Fam3.1 aminoacylation ribozyme variant]	1.61	–	1.11	1.19	1.58	1.32
UUACUGCAAACAAUCGGUCUG [Fam1A.1 aminoacylation ribozyme variant]	1.17	–	1.26	1.39	1.42	1.22
UUUACCCUGGUCGUCGAGUGA [Fam2.1 aminoacylation ribozyme variant]	1.16	–	1.24	0.984	1.04	0.835
